Experimental data published in the supplement of paper PMC6078165.
± gives the standard deviation of the averaged measurements. Values are relative to the signal before dosing, not to a vehicle control; the signal also falls without drug.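 Labels refer to human fibroblasts, largely primary: uterine (C12385, HUF), lung (H6013), bone (Hs27A), adrenal (HADF), skin (WS1), plus mammary HMF and breast cancer-associated Hs343T. Cancer lines are basal-like or mesenchymal-like triple-negative breast cancer. The paper counts as hits responses shifting over 3x the replicate standard deviation. The tissue of the other fibroblasts is not given here.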

System: MDAMB231
Assay: relative JC-1 red fluorescence (viability) vs pre-drug, coculture with fibroblast (fraction); higher = more viable cancer cells
Details: 10 µM
Protocol: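 JC-1 labelled TNBC cells cocultured 1:1 (1,500 cells each) with CellTrace Violet stained primary or stromal fibroblasts in 384-well plates in FluoroBrite medium, treated with one of 42 anticancer drugs at 0.1, 1, 10 or 100 uM. JC-1 red fluorescence (mitochondrial integrity in cancer cells only) was read by plate reader every 8 h for 72 h. Values are normalised to each well's pre-drug value. The stock of one drug was tenfold lower, so its dose labels may be too high.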

CC(=O)c1c(C)c2cnc(Nc3ccc(N4CCNCC4)cn3)nc2n(C2CCCC2)c1=O [Palbociclib]
relative JC-1 red fluorescence
Details | 8 h | 16 h | 24 h | 32 h | 40 h
coculture fibroblast: C12385 | 0.806 ± 0.025 | 0.852 ± 0.079 | 0.732 ± 0.057 | 0.84 ± 0.1 | 0.815 ± 0.093
coculture fibroblast: H6013 | 0.98 ± 0.026 | 0.975 ± 0.028 | 0.927 ± 0.025 | 0.861 ± 0.13 | 0.884 ± 0.043
coculture fibroblast: H6019 | 0.841 ± 0.049 | 0.836 ± 0.061 | 0.769 ± 0.11 | 0.825 ± 0.11 | 0.816 ± 0.13
coculture fibroblast: H6076 | 0.971 ± 0.018 | 0.953 ± 0.025 | 0.944 ± 0.018 | 0.945 ± 0.019 | 0.932 ± 0.024
coculture fibroblast: H6231 | 0.722 ± 0.032 | 0.897 ± 0.011 | 0.916 ± 0.12 | 0.9644 ± 0.0016 | 0.9347 ± 0.0064
coculture fibroblast: HADF | 0.826 ± 0.11 | 0.809 ± 0.14 | 0.906 ± 0.035 | 0.808 ± 0.031 | 0.836 ± 0.043
coculture fibroblast: HCFa | 0.979 ± 0.021 | 0.96907 ± 0.00091 | 0.95 ± 0.02 | 0.953 ± 0.049 | 0.914 ± 0.043
coculture fibroblast: HCPF | 0.9798 ± 0.0073 | 0.9552 ± 0.0049 | 0.942 ± 0.022 | 0.925 ± 0.027 | 0.901 ± 0.024
coculture fibroblast: HHSteC | 0.9745 ± 0.0019 | 0.99405 ± 0.00044 | 0.986 ± 0.019 | 0.975 ± 0.022 | –
coculture fibroblast: HMF | 0.792 ± 0.12 | 0.7385 ± 0.0035 | 0.7653 ± 0.0062 | 0.816 ± 0.097 | –
coculture fibroblast: HPFa | 0.789 ± 0.1 | 0.802 ± 0.074 | 0.812 ± 0.037 | 0.977 ± 0.014 | –
coculture fibroblast: HUF | 0.927 ± 0.005 | 0.928 ± 0.012 | 0.896 ± 0.036 | 0.872 ± 0.035 | –
coculture fibroblast: Hs5 | 0.924 ± 0.04 | 0.969 ± 0.043 | 0.953 ± 0.062 | 0.94 ± 0.059 | –
coculture fibroblast: Hs27A | 0.984 ± 0.021 | 0.936 ± 0.043 | 0.917 ± 0.043 | 0.93156 ± 0.00031 | –
coculture fibroblast: Hs343T | 0.828 ± 0.14 | 0.823 ± 0.059 | 0.809 ± 0.069 | 0.862 ± 0.06 | –
coculture fibroblast: WS1 | 0.819 ± 0.0084 | 0.8187 ± 0.0011 | 0.7295 ± 0.003 | 0.811 ± 0.026 | –
